Results on 38 compounds are retold here after PubChem BioAssay AID2685 (National Center for Advancing Translational Sciences (NCATS), 2010).

This test in a line: qHTS Assay for Lipid Storage Modulators in Drosophila S3 Cells.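 On cell number change: cells counted by Cell Tracker Red CMTPX staining in the red channel.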 The conditions noted are these: BODIPY lipid droplet fluorescence, 18-24 h; for cell number change: measured here: cell count max response, cells fed with added oleic acid. The gist of the method:
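Drosophila S3 cells loaded with oleic acid (400 uM, as added) and compounds at several concentrations; lipid droplets imaged by 488-nm laser-scanning cytometry, 500–530 nm intensity and object ratio to cell channel. Percent activity normalized to 20 uM Triacsin C.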
Background: Quantitative high-throughput screening tests each substance at several concentrations.

The mark [1] stands for this setting: measured here: cell number channel AC50, cells fed with added oleic acid.
Setting [2] is: measured here: lipid fluorescence (Fed channel) AC50, cells fed with added oleic acid.

Molecules are shown by their SMILES. This is one part of the list. Shown are side measurements of this screen, not its main read-out; they come without a call. The list favours compounds with an active or inconclusive main result. The note in brackets gives the kind of curve behind each potency; many fits are weak.

As to `C#CCn1cc(/C=N/NC(=O)c2cc3ccccc3o2)c2ccccc21`, the cell number change came to 58.9%. Further, the AC50 under setting [1] is 5.8 µM [rising, single point].
`CCCNc1nc(OC(C(F)(F)F)C(F)(F)F)nc(OC(C(F)(F)F)C(F)(F)F)n1`: the cell number change is -39.2%. Moreover, the AC50 under setting [1] is 29.1 µM [falling, single point].
Turning to `N#Cc1ccc(C(=O)Nc2ccc(S(=O)(=O)NC3=NCCCCC3)cc2)cc1`, the cell number change came to 89.5%. In addition, under setting [1], the AC50 was 16.4 µM [rising, partial curve]. Moreover, the AC50 under setting [2] was 5.17 µM [rising, partial curve].
Turning to `CN(C)c1oc(-c2ccc(Cl)cc2)nc1S(=O)(=O)c1ccccc1`, the AC50 under setting [2] was 7.31 µM [rising, partial curve].
Consider `CCOC(=O)c1c(C)nc(C(Cl)(Cl)Cl)nc1N`, for which the cell number change is -31.8%. Moreover, the AC50 under setting [1] is 29.1 µM [falling, single point].
On to `O=C(O)C1(c2cccc(Cl)c2)CCC1`, for which the cell number change is -14.1%. The AC50 under setting [1] is 4.11 µM [rising, single point].
For `CCC1CCCCN1CCCNC(=O)c1ccc2c(c1)N(Cc1ccc(F)cc1)C(=O)c1ccccc1S2=O` (configuration not stated), the cell number change turned out to be 8.26%. Also, under setting [2], the AC50 is 2.59 µM [falling, single point].
In the case of `CCOc1ccc(S(=O)(=O)NC(C)C(=O)NCc2ccccn2)cc1` (configuration not stated), under setting [2], the AC50 is 0.206 µM [rising, single point].
Turning to `CN(C)c1oc(COc2ccc(F)cc2)nc1C#N`, the cell number change stood at 21.6%. Also, the AC50 under setting [2] was 0.259 µM [rising, full curve, poor fit].
On to `Cc1cc(S(=O)(=O)NCc2ccccc2)ccc1OCC(=O)NCc1cccnc1`, for which the cell number change was 16.8%. Also, the AC50 under setting [2] is 29.1 µM [falling, single point].
Turning to `S=C(c1ccc(-c2ccccc2Cl)o1)N1CCOCC1`, the cell number change stood at 11.1%. Moreover, the AC50 under setting [2] was 0.461 µM [rising, single point].
For the compound `CCOC(=O)C1CCCN(C(=O)c2ccc(CNS(=O)(=O)c3ccc(C)cc3)cc2)C1` (configuration not stated), the cell number change turned out to be 6.62%. Under setting [1], the AC50 is 0.164 µM [falling, full curve, poor fit]. The AC50 under setting [2] is 0.164 µM [falling, full curve, poor fit].
With `O=C(Nc1cccs1)Nc1ccc(Br)cc1F`, the cell number change is -35.2%. Besides, under setting [1], the AC50 was 23.1 µM [falling, single point]. The AC50 under setting [2] was 0.103 µM [rising, full curve, poor fit].
`Clc1ccccc1CSc1nc2ccncc2[nH]1`: the cell number change is -18.6%.
Still for that read-out and setting: the same measure for `COCCCN1C(=O)N(c2ccc(F)cc2)C(=O)C1CC(=O)Nc1ccccc1` (configuration not stated): 10.8%.
With `COc1ccc(C(CNC(=O)COc2ccc(Br)cc2F)N2CCCC2)cc1` (configuration not stated), the cell number change is -19.4%. In addition, the AC50 under setting [2] is 3.66 µM [rising, partial curve].
As to `Cc1ccccc1NC(=O)c1ccc(COc2ccc3c(C)cc(=O)oc3c2)cc1`, the AC50 runs as follows: under setting [1], 0.92 µM [falling, full curve, poor fit]; under setting [2], 0.651 µM [falling, single point].
As to `COc1cccc(COC(=O)c2c(C)nn(-c3ccccc3)c2Cl)c1OC`, the cell number change is 54.6%. For the same compound, under setting [1], the AC50 was 23.1 µM [rising, single point].
As for `CC1CN(C(=O)CCCN2C(=O)c3ccccc3C2=O)CC(C)O1` (configuration not stated), the cell number change is -13.5%. Also, the AC50 under setting [2] was 6.51 µM [falling, single point].
Take `COC(=O)C(CC(C)C)NC(=O)CSc1nc(-c2ccccc2)c(C#N)c(=O)[nH]1` (configuration not stated): the cell number change is -16.4%. Besides, the AC50 under setting [2] is 18.4 µM [falling, partial curve].
As for `CCN(CC(=O)N1CCCC1)S(=O)(=O)c1ccc(F)cc1`, the cell number change was -5.26%. The AC50 under setting [2] is 18.4 µM [rising, single point].
As for `CCOC(=O)C(=CNc1cc(C)nn1-c1ccccc1)C(=O)OCC`, the AC50 under setting [2] is 3.66 µM [rising, single point].
On to `Cc1ccc(NC(=O)CSc2nc3ccccc3nc2N2CCOCC2)cc1`, for which the cell number change is -5.48%. Moreover, the AC50 under setting [2] is 29.1 µM [falling, single point].
As to `Cc1cccc(C)c1N1CCN(c2cc(Cl)nc(N)n2)CC1`, the cell number change is -35.1%. Further, the AC50 under setting [1] was 29.1 µM [falling, single point]. In addition, the AC50 under setting [2] is 29.1 µM [falling, single point].
Regarding `Cc1coc2cc3oc(=O)c(CCC(=O)NCCCN4CCOCC4)c(C)c3cc12`, the cell number change is 16.9%.
Regarding `CN(C)S(=O)(=O)c1ccc(NC(=O)C2CC(=O)N(Cc3ccccc3Cl)C2)cc1` (configuration not stated), the cell number change was 7.09%. For the same compound, under setting [1], the AC50 was 0.651 µM [falling, full curve, poor fit]. Besides, the AC50 under setting [2] is 0.517 µM [falling, full curve].
With `Cc1cc(C)c([N+](=O)[O-])cc1-c1ccc(/C=N/NC(=O)c2nonc2N)o1`, the cell number change worked out at 70.1%. For the same compound, the AC50 under setting [1] was 20.6 µM [rising, single point].
Regarding `OCCCc1nc2n(n1)C(c1cccs1)C=C(c1ccccc1)N2` (configuration not stated), the cell number change is -8.23%. For the same compound, the AC50 under setting [2] was 0.00461 µM [falling, full curve, poor fit].
Consider `CC(NC(=O)c1ccc(NC2=NC3CS(=O)(=O)CC3S2)cc1)c1ccccc1` (configuration not stated), for which the cell number change turned out to be 11.2%.
`Cc1cc(C)cc(C(=O)NC(CC(N)=O)c2ccc(N3CCC(N4CCCCC4)CC3)c([N+](=O)[O-])c2)c1` (configuration not stated): the cell number change came out at 0.599%. The AC50 under setting [2] was 3.26 µM [rising, single point].
On to `COc1ccccc1N1CCN(CC(=O)Nc2ccccc2C(=O)NCCc2ccccc2)CC1`, for which the cell number change came to 14.2%. The AC50 under setting [2] is 20.6 µM [rising, single point].
On to `COc1ccc(CCNC(=O)CS(=O)Cc2nc(-c3ccccc3F)oc2C)cc1OC` (configuration not stated), for which the cell number change was determined as 64.3%. The AC50 under setting [1] is 18.4 µM [rising, single point].
On to `O=C(/C=C/c1ccccc1)Nc1sc2c(c1C(=O)O)CCC2`, for which the cell number change is -6.67%. Besides, the AC50 under setting [2] is 0.082 µM [falling, full curve, poor fit].
`CC(C)c1csc(CN2CCC(n3nccc3NC(=O)Cc3ccccc3)CC2)n1`: the AC50 under setting [2] is 29.1 µM [falling, single point].
With `Fc1cccc(CSc2ncnc3c2oc2ccccc23)c1`, the cell number change is 0.768%. The AC50 under setting [2] is 0.103 µM [rising, full curve, poor fit].
Turning to `O=C(O)c1ccccc1S(=O)(=O)CC(=O)N1CCCCC1`, the cell number change was 9.72%.
Same read-out and setting: under `CC1(C)Cc2c(cnn2-c2cccc(F)c2)C(NC(=O)CCc2cnccn2)C1` (configuration not stated) stands -7.74%.
`Cc1cc(NC(=O)c2cc(-c3cccs3)on2)nn1Cc1ccc(Cl)cc1`: the cell number change was -49.1%. In addition, the AC50 under setting [1] was 16.4 µM [falling, partial curve]. Besides, the AC50 under setting [2] is 29.1 µM [falling, single point].

By AC50 is commonly meant the concentration at which the activity in the assay is half-maximal. Read a low AC50 as activity at low concentration.
